The results in this text go back to patent US20220085295A1, “Novel Compound and Organic Light Emitting Device Comprising the Same” (LG Chem, Ltd., priority 2019, published 2022).

A short description of the data set: Evaluation of characteristics of organic light emitting device (compound as light emitting layer dopant). The following applies: for Lifetime (hr @1000 nit): T90: time for luminance to be reduced to 90% of initial luminance (1000 nit); for Driving voltage (V @10 mA/cm^2) / Luminous efficiency (cd/A @10 mA/cm^2) / Power efficiency (lm/W @10 mA/cm^2): organic light emitting device, current density 10 mA/cm^2.

As for `CC(C)(C)c1ccc(N(c2ccc(C(C)(C)C)cc2)c2ccc(C3(c4ccc(C(C)(C)C)cc4)c4cc(N(c5ccccc5)c5ccc(C(C)(C)C)cc5)ccc4-c4c3cc(N(c3ccccc3)c3ccc(C(C)(C)C)cc3)c3oc5ccccc5c43)cc2)cc1` (stereo not shown) [Compound 1], the “Lifetime (hr @1000 nit)” value came to 351 h, the “Driving voltage (V @10 mA/cm^2)” value is on record as 4.37 V, the “Luminous efficiency (cd/A @10 mA/cm^2)” value turned out to be 5.29 cd/A and the “Power efficiency (lm/W @10 mA/cm^2)” value was 3.75 lm/W.

On to `CC(C)(C)c1ccc(N(c2ccc(C(C)(C)C)cc2)c2ccc(C3(c4ccc(C(C)(C)C)cc4)c4cc(N(c5ccc(C(C)(C)C)cc5)c5cccc6c5oc5ccccc56)ccc4-c4c3cc(N(c3ccc(C(C)(C)C)cc3)c3cccc5c3oc3ccccc35)c3oc5ccccc5c43)cc2)cc1` (stereo not shown) [Compound 2], for which the “Lifetime (hr @1000 nit)” value amounted to 340 h, the “Driving voltage (V @10 mA/cm^2)” value is 4.31 V, the “Luminous efficiency (cd/A @10 mA/cm^2)” value is 5.20 cd/A and the “Power efficiency (lm/W @10 mA/cm^2)” value came to 3.77 lm/W.

In the case of `CC(C)(C)c1ccc(N(c2ccc(C(C)(C)C)cc2)c2ccc(C3(c4ccc(C(C)(C)C)cc4)c4cc(N(c5ccccc5)c5ccc(C(C)(C)C)cc5)ccc4-c4c3cc(N(c3ccccc3)c3ccc(C(C)(C)C)cc3)c3c4-c4ccccc4C3(C)C)cc2)cc1` (stereo not shown) [Compound 3], the “Lifetime (hr @1000 nit)” value was found to be 365 h, the “Driving voltage (V @10 mA/cm^2)” value stood at 4.28 V, the “Luminous efficiency (cd/A @10 mA/cm^2)” value came to 5.37 cd/A and the “Power efficiency (lm/W @10 mA/cm^2)” value is listed as 3.95 lm/W.

For `CC(C)(C)c1ccc(N(c2ccc(C(C)(C)C)cc2)c2ccc(C3(c4ccc(C(C)(C)C)cc4)c4cc(N(c5ccc(C(C)(C)C)cc5)c5cccc6c5oc5ccccc56)ccc4-c4c3cc(N(c3ccc(C(C)(C)C)cc3)c3cccc5c3oc3ccccc35)c3c4-c4ccccc4C3(C)C)cc2)cc1` (stereo not shown) [Compound 4], the “Lifetime (hr @1000 nit)” value was 366 h, the “Driving voltage (V @10 mA/cm^2)” value came to 4.29 V, the “Luminous efficiency (cd/A @10 mA/cm^2)” value is on record as 5.35 cd/A and the “Power efficiency (lm/W @10 mA/cm^2)” value stood at 3.90 lm/W.

`CC(C)(C)c1ccc(N(c2ccc(C(C)(C)C)cc2)c2ccc(C3(c4ccc(C(C)(C)C)cc4)c4cc(N(c5ccccc5)c5ccc(C(C)(C)C)cc5)c5c(oc6ccccc65)c4-c4c3cc(N(c3ccccc3)c3ccc(C(C)(C)C)cc3)c3oc5ccccc5c43)cc2)cc1` (stereo not shown) [Compound 5]: the “Lifetime (hr @1000 nit)” value is 339 h, the “Driving voltage (V @10 mA/cm^2)” value amounted to 4.35 V, the “Luminous efficiency (cd/A @10 mA/cm^2)” value is listed as 5.26 cd/A and the “Power efficiency (lm/W @10 mA/cm^2)” value was determined as 3.69 lm/W.

Consider `CC(C)(C)c1ccc(N(c2ccc(C(C)(C)C)cc2)c2ccc(C3(c4ccc(C(C)(C)C)cc4)c4cc(N(c5ccc(C(C)(C)C)cc5)c5cccc6c5oc5ccccc56)c5c(oc6ccccc65)c4-c4c3cc(N(c3ccc(C(C)(C)C)cc3)c3cccc5c3oc3ccccc35)c3oc5ccccc5c43)cc2)cc1` (stereo not shown) [Compound 6], for which the “Lifetime (hr @1000 nit)” value was 347 h, the “Driving voltage (V @10 mA/cm^2)” value was 4.38 V, the “Luminous efficiency (cd/A @10 mA/cm^2)” value is reported as 5.51 cd/A and the “Power efficiency (lm/W @10 mA/cm^2)” value stood at 3.81 lm/W.

On to `CC(C)(C)c1ccc(Oc2ccc(C3(c4ccc(C(C)(C)C)cc4)c4cc(N(c5ccccc5)c5ccc(C(C)(C)C)cc5)c5c(oc6ccccc65)c4-c4c3cc(N(c3ccccc3)c3ccc(C(C)(C)C)cc3)c3oc5ccccc5c43)cc2)cc1` (stereo not shown) [Compound 7], for which the “Lifetime (hr @1000 nit)” value is 335 h, the “Driving voltage (V @10 mA/cm^2)” value was found to be 4.27 V, the “Luminous efficiency (cd/A @10 mA/cm^2)” value was found to be 5.30 cd/A and the “Power efficiency (lm/W @10 mA/cm^2)” value came to 3.81 lm/W.

Turning to `CC(C)(C)c1ccc(Sc2ccc(C3(c4ccc(C(C)(C)C)cc4)c4cc(N(c5ccccc5)c5ccc(C(C)(C)C)cc5)c5c(oc6ccccc65)c4-c4c3cc(N(c3ccccc3)c3ccc(C(C)(C)C)cc3)c3oc5ccccc5c43)cc2)cc1` (stereo not shown) [Compound 8], the “Lifetime (hr @1000 nit)” value amounted to 342 h, the “Driving voltage (V @10 mA/cm^2)” value is listed as 4.32 V, the “Luminous efficiency (cd/A @10 mA/cm^2)” value is listed as 5.24 cd/A and the “Power efficiency (lm/W @10 mA/cm^2)” value is 3.75 lm/W.

Consider `Cc1ccc(C)c(C2(c3ccc([Si](C)(C)C)cc3)c3cc(N(c4ccccc4)c4ccc(C(C)(C)C)cc4)c4c(oc5ccccc54)c3-c3c2cc(N(c2ccccc2)c2ccc(C(C)(C)C)cc2)c2oc4ccccc4c32)c1` (stereo not shown) [Compound 9], for which the “Lifetime (hr @1000 nit)” value was 340 h, the “Driving voltage (V @10 mA/cm^2)” value worked out at 4.33 V, the “Luminous efficiency (cd/A @10 mA/cm^2)” value worked out at 5.29 cd/A and the “Power efficiency (lm/W @10 mA/cm^2)” value turned out to be 3.77 lm/W.

For the molecule `CC(C)(C)c1ccc(N(c2ccccc2)c2ccc3c(c2)C2(c4ccccc4-c4ccccc42)c2cc(N(c4ccccc4)c4ccc(C(C)(C)C)cc4)c4c(oc5ccccc54)c2-3)cc1` [Compound BD, reference compound], the “Lifetime (hr @1000 nit)” value came to 312 h, the “Driving voltage (V @10 mA/cm^2)” value turned out to be 4.40 V, the “Luminous efficiency (cd/A @10 mA/cm^2)” value is given as 5.17 cd/A and the “Power efficiency (lm/W @10 mA/cm^2)” value came out at 3.61 lm/W.
